At least one read-out could not be matched to a standard name with certainty. Peptide text beside a SMILES is read from it.
Test: Solubilization of conventionally recrystallized α-APM in water at room temperature
Format: physicochemical
Conditions: 250 mg crushed powder in 250 ml of water at room temperature, stirring and standing alternated every 30 seconds
Text: α-APM purified y conventional recrystallization methods has the disadvantage of poor solubilization (rate of solution) in water.

COC(=O)[C@H](Cc1ccccc1)NC(=O)[C@@H](N)CC(=O)O [α-APM obtained conventionally by recrystallization from a 50] [α-L-aspartyl-L-phenylalanien emthyl ester] (H-Asp-Phe-OMe)
solubilization in water (result in words): a significant amount of undissolved α-APM remains even after 5 minutes
